Results taken from the odorant receptor screen of Mainland et al. (2015).
Where “and” joins values, the source holds several entries; their conditions need not be identical. Identical values can stand only once. Some of the results follow. Single wells; the ratio to wells without odorant was worked out here, and repeats agree poorly.

Experiments:
Assay in all cases: odorant receptor activation (CRE luciferase / Renilla) (fold of no-odor wells); higher = more activation
Conditions in all cases: 100 µM
[1] = test system: OR7C2 clone 1292
[2] = test system: OR7D2 clone 1405
[3] = test system: OR7D4 clone 1298
[4] = test system: OR7E24 P242S clone 1314
[5] = test system: OR7G1 clone 1295
[6] = test system: OR7G2 V263A/F281V clone 1312
[7] = test system: OR7G2 clone 1475
[8] = test system: OR7G3 clone 1297
[9] = test system: OR8A1 clone 1503
[10] = test system: OR8B12 clone 1731

**Q.** For `COc1cc(C=O)ccc1O` [vanillin], which odorant receptor activation [1] is on record?
**A.** 0.998

**Q.** And the odorant receptor activation [2]?
**A.** 0.958

**Q.** And the odorant receptor activation [3]?
**A.** 0.898

**Q.** What about the odorant receptor activation [4] of the same molecule?
**A.** 0.974

**Q.** What about the odorant receptor activation [5] of the same molecule?
**A.** 1.02

**Q.** And the odorant receptor activation [6]?
**A.** 0.957

**Q.** What about the odorant receptor activation [7] of the same molecule?
**A.** 1.15

**Q.** And the odorant receptor activation [8]?
**A.** 0.875

**Q.** And the odorant receptor activation [9]?
**A.** 1.01

**Q.** What about the odorant receptor activation [10] of the same molecule?
**A.** 0.675

**Q.** Which results are given for `CCC1(O)C2(C)CCC(C2)C1(C)C` (stereo not given) [2-ethylfenchol]?
**A.** odorant receptor activation [1]: 0.931; odorant receptor activation [2]: 0.782; odorant receptor activation [3]: 1; odorant receptor activation [4]: 0.613; odorant receptor activation [5]: 1.14; odorant receptor activation [6]: 0.871; odorant receptor activation [7]: 1.09; odorant receptor activation [8]: 0.665; odorant receptor activation [9]: 1.27; odorant receptor activation [10]: 0.933

**Q.** `CC1CCC(C(C)C)C(O)C1` (single isomer, unassigned; (-)) [(-)-menthol] was tested. Which odorant receptor activation [1] did it give?
**A.** 0.735

**Q.** And the odorant receptor activation [2]?
**A.** 0.673

**Q.** What about the odorant receptor activation [3] of the same molecule?
**A.** 0.717

**Q.** And the odorant receptor activation [4]?
**A.** 0.535

**Q.** And the odorant receptor activation [5]?
**A.** 0.764

**Q.** What about the odorant receptor activation [6] of the same molecule?
**A.** 0.808

**Q.** What about the odorant receptor activation [7] of the same molecule?
**A.** 2.97

**Q.** What about the odorant receptor activation [8] of the same molecule?
**A.** 0.512

**Q.** And the odorant receptor activation [9]?
**A.** 3.36

**Q.** And the odorant receptor activation [10]?
**A.** 0.985

**Q.** With `CCCCCC(C)=O` [2-heptanone] as the molecule, how does the odorant receptor activation [1] read?
**A.** 1.58

**Q.** And the odorant receptor activation [2]?
**A.** 1.01

**Q.** And the odorant receptor activation [3]?
**A.** 3.7

**Q.** And the odorant receptor activation [4]?
**A.** 1.09

**Q.** And the odorant receptor activation [5]?
**A.** 0.549

**Q.** And the odorant receptor activation [6]?
**A.** 0.755

**Q.** And the odorant receptor activation [8]?
**A.** 3.05

**Q.** What about the odorant receptor activation [9] of the same molecule?
**A.** 0.766 and 0.639

**Q.** How did the odorant receptor activation [1] turn out when `COc1cc(C)ccc1O` [2-methoxy-4-methylphenol] was run?
**A.** 1.25

**Q.** What about the odorant receptor activation [2] of the same molecule?
**A.** 0.977

**Q.** What about the odorant receptor activation [3] of the same molecule?
**A.** 0.831

**Q.** What about the odorant receptor activation [4] of the same molecule?
**A.** 0.993

**Q.** What about the odorant receptor activation [5] of the same molecule?
**A.** 1.27

**Q.** And the odorant receptor activation [6]?
**A.** 1.16

**Q.** What about the odorant receptor activation [7] of the same molecule?
**A.** 0.796

**Q.** What about the odorant receptor activation [8] of the same molecule?
**A.** 0.694

**Q.** And the odorant receptor activation [9]?
**A.** 0.938

**Q.** And the odorant receptor activation [10]?
**A.** 0.912

**Q.** Which results are given for `CC12CCC(C1)C(C)(C)C2=O` (stereo not given) [fenchone]?
**A.** odorant receptor activation [1]: 0.972; odorant receptor activation [2]: 1.15; odorant receptor activation [3]: 1; odorant receptor activation [4]: 0.99; odorant receptor activation [5]: 1.05; odorant receptor activation [6]: 1.09; odorant receptor activation [7]: 0.806; odorant receptor activation [8]: 1; odorant receptor activation [9]: 1.28; odorant receptor activation [10]: 0.914

**Q.** For `CC1COCc2cc3c(cc21)C(C)(C)C(C)C3(C)C` (stereo not given) [galaxolide], which odorant receptor activation [1] is on record?
**A.** 1.16 and 1.47

**Q.** And the odorant receptor activation [2]?
**A.** 2.94

**Q.** What about the odorant receptor activation [4] of the same molecule?
**A.** 2.88 and 3.4

**Q.** And the odorant receptor activation [5]?
**A.** 1.06 and 1.33

**Q.** And the odorant receptor activation [6]?
**A.** 3.64 and 3.19

**Q.** And the odorant receptor activation [7]?
**A.** 3.13 and 5.69

**Q.** What about the odorant receptor activation [9] of the same molecule?
**A.** 6.64 and 4.49

**Q.** For `CCCCCCCC=CC=O` [2-decenal], which odorant receptor activation [1] is on record?
**A.** 0.896

**Q.** And the odorant receptor activation [2]?
**A.** 2

**Q.** What about the odorant receptor activation [3] of the same molecule?
**A.** 1.22

**Q.** What about the odorant receptor activation [4] of the same molecule?
**A.** 0.996

**Q.** And the odorant receptor activation [5]?
**A.** 1.57

**Q.** And the odorant receptor activation [6]?
**A.** 1.34

**Q.** And the odorant receptor activation [7]?
**A.** 1.32

**Q.** And the odorant receptor activation [8]?
**A.** 0.855

**Q.** What about the odorant receptor activation [9] of the same molecule?
**A.** 1.47

**Q.** And the odorant receptor activation [10]?
**A.** 0.97

**Q.** How did the odorant receptor activation [1] turn out when `CC(C)CC(=O)O` [isovaleric acid] was run?
**A.** 1.04

**Q.** What about the odorant receptor activation [2] of the same molecule?
**A.** 0.797

**Q.** And the odorant receptor activation [3]?
**A.** 0.765

**Q.** What about the odorant receptor activation [4] of the same molecule?
**A.** 0.778

**Q.** And the odorant receptor activation [5]?
**A.** 0.9

**Q.** And the odorant receptor activation [6]?
**A.** 0.884

**Q.** What about the odorant receptor activation [7] of the same molecule?
**A.** 1.06

**Q.** And the odorant receptor activation [8]?
**A.** 0.956

**Q.** And the odorant receptor activation [9]?
**A.** 0.871

**Q.** And the odorant receptor activation [10]?
**A.** 1.35

**Q.** How did the odorant receptor activation [1] turn out when `CCCCCOC(C)=O` [n-amyl acetate] was run?
**A.** 0.552

**Q.** What about the odorant receptor activation [2] of the same molecule?
**A.** 0.971

**Q.** What about the odorant receptor activation [3] of the same molecule?
**A.** 0.564

**Q.** What about the odorant receptor activation [4] of the same molecule?
**A.** 0.692

**Q.** What about the odorant receptor activation [5] of the same molecule?
**A.** 0.575

**Q.** What about the odorant receptor activation [6] of the same molecule?
**A.** 0.357

**Q.** And the odorant receptor activation [7]?
**A.** 1.09 and 0.809

**Q.** And the odorant receptor activation [8]?
**A.** 0.695

**Q.** What about the odorant receptor activation [9] of the same molecule?
**A.** 0.866 and 0.784

**Q.** And the odorant receptor activation [10]?
**A.** 0.81

**Q.** `CC(C)(O)CCCC1=CCC(C=O)CC1` (stereo not given) [lyral] was tested. Which odorant receptor activation [10] did it give?
**A.** 0.929

**Q.** `C=C(C)C1CC=CCC1` (stereo not given) [r-limonene] was tested. Which odorant receptor activation [1] did it give?
**A.** 0.861 and 0.577

**Q.** What about the odorant receptor activation [2] of the same molecule?
**A.** 1.21 and 0.931

**Q.** What about the odorant receptor activation [3] of the same molecule?
**A.** 0.764 and 0.308

**Q.** What about the odorant receptor activation [4] of the same molecule?
**A.** 1.21 and 0.449

**Q.** What about the odorant receptor activation [5] of the same molecule?
**A.** 0.769 and 0.424

**Q.** What about the odorant receptor activation [7] of the same molecule?
**A.** 0.976 and 1.07 and 0.641

**Q.** What about the odorant receptor activation [8] of the same molecule?
**A.** 0.954 and 0.524

**Q.** What about the odorant receptor activation [9] of the same molecule?
**A.** 1.07 and 0.83 and 0.751

**Q.** And the odorant receptor activation [10]?
**A.** 0.993

**Q.** How did the odorant receptor activation [1] turn out when `CC(C)C=O` [isobutyraldehyde] was run?
**A.** 1.06 and 1.38

**Q.** What about the odorant receptor activation [2] of the same molecule?
**A.** 0.78

**Q.** What about the odorant receptor activation [3] of the same molecule?
**A.** 0.914 and 0.907

**Q.** What about the odorant receptor activation [4] of the same molecule?
**A.** 0.886 and 1.18

**Q.** What about the odorant receptor activation [5] of the same molecule?
**A.** 0.868 and 0.962

**Q.** What about the odorant receptor activation [6] of the same molecule?
**A.** 1.39 and 0.698

**Q.** And the odorant receptor activation [7]?
**A.** 0.893 and 1.07

**Q.** And the odorant receptor activation [8]?
**A.** 0.697 and 0.838

**Q.** And the odorant receptor activation [9]?
**A.** 0.934 and 0.988

**Q.** What about the odorant receptor activation [10] of the same molecule?
**A.** 1.01

**Q.** Which results are given for `C=C(C)C1CC=C(C)C(=O)C1` (stereo not given) [r-carvone]?
**A.** odorant receptor activation [1]: 0.69; odorant receptor activation [2]: 1.13; odorant receptor activation [3]: 0.697; odorant receptor activation [4]: 0.87; odorant receptor activation [5]: 0.739; odorant receptor activation [6]: 0.926; odorant receptor activation [7]: 0.82; odorant receptor activation [8]: 0.86; odorant receptor activation [9]: 0.886; odorant receptor activation [10]: 0.672

**Q.** How did the odorant receptor activation [1] turn out when `c1cnccn1` [pyrazine] was run?
**A.** 0.771

**Q.** What about the odorant receptor activation [2] of the same molecule?
**A.** 1.38

**Q.** And the odorant receptor activation [3]?
**A.** 0.796

**Q.** What about the odorant receptor activation [4] of the same molecule?
**A.** 1.04

**Q.** What about the odorant receptor activation [5] of the same molecule?
**A.** 0.818

**Q.** What about the odorant receptor activation [6] of the same molecule?
**A.** 0.911

**Q.** What about the odorant receptor activation [7] of the same molecule?
**A.** 0.618

**Q.** And the odorant receptor activation [8]?
**A.** 0.804

**Q.** And the odorant receptor activation [9]?
**A.** 0.74

**Q.** And the odorant receptor activation [10]?
**A.** 0.796
